# Data reported in patent publication EP1203770A1 (priority 1992, dated 1994).
# For at least one compound, name, drawing or mass did not settle the structure.
# Test system: testosterone 5α-reductase
# Assay: In vitro testosterone 5α-reductase inhibitor assay
# Type: biochemical
# Settings: at a dose of at least 0.1 mM; dog and rat prostates
# Protocol: The following five (5) compounds of the present invention were tested in an in vitro testosterone 5α-reductase inhibitor assay: 3-(α-Ethylbenzyl)-6-(α-ethylphenethyl)-4-hydroxy-2H-pyran-2-one; 6-(1-Benzyl-propyl)-3-(cyclopropyl-phenyl-methyl)-4-hydroxy-pyran-2-one; 3-(α-Ethylbenzyl)-6-(α-ethylbenzyl)-4-hydroxy-2H-pyran-2-one; 3-(α-Ethylbenzyl)-6-phenethyl-4-hydroxy-2H-pyran-2-one; 4-Hydroxy-3-(1-phenylpropyl)-6-[1-[(tetrahydro-2H-pyran-3-yl)methyl]propyl]-2H-pyran-2-one. This assay is very similar to those described in the following references, except for the use of dog and rat prostates in place of human prostates: Proc. Natl. Acad. Sci. USA, Vol. 90: 5277-5281 (1993); J. Steroid. Biochem. Molec. Biol., Vol. 44, No. 2, pp. 121-131 (1993). All five (5) compounds had activity in this assay at a dose of at least 0.1 mM.
smiles,measurement,value
"CCC(c1ccccc1)c1cc(O)c(C(CC)c2ccccc2)c(=O)o1 (stereo not drawn) [Example 186, 3-α-Ethylbenzyl-6-α-ethylbenzyl-4-hydroxy-2H-pyran-2-one]",activity in testosterone 5α-reductase inhibitor assay,had activity
